# Inconclusive results, whose numbers are uncertain, are shown with a selection of clear calls. For part of these data: Potencies of inconclusive entries are doubtful fits and often do not repeat. Active and inactive are the calls of the source. How the source made its calls: active means hit-call score of the fitted dose curve at least 0.9, where 1 is the maximum; inconclusive means response in the unintended direction; inactive means score below 0.9.
# By UniProt entry, the sequences of proteins in these tests, tags left out.
# UniProt P33261, whole entry, looked up: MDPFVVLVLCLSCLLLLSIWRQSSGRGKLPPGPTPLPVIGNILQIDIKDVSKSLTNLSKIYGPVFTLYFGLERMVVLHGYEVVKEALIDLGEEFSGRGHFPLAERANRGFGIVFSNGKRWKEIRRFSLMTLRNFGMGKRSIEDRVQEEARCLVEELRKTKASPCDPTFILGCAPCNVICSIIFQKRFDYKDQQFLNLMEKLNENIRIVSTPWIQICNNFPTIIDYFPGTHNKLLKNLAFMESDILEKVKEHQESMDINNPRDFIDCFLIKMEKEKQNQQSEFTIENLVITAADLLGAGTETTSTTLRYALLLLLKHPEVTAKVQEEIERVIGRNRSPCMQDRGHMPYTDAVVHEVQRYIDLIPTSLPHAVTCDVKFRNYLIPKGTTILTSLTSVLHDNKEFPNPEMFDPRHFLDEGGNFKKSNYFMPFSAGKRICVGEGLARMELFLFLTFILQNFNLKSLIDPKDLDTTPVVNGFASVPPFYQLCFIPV
# UniProt P08684, whole entry, looked up: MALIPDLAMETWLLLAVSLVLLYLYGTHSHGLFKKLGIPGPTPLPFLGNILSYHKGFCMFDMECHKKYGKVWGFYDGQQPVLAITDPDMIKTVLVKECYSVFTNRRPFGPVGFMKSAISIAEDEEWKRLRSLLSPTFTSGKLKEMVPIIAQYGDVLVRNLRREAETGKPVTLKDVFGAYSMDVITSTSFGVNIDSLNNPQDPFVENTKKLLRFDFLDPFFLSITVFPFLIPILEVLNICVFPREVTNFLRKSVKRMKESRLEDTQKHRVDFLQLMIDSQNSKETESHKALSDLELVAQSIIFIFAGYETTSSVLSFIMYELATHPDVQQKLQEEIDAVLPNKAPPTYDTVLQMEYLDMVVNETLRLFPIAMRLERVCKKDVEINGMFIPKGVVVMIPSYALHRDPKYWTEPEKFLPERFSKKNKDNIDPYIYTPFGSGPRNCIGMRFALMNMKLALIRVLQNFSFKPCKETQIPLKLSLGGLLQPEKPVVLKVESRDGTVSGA
# Assays:
# [1] = read-out: sulfotransferase (SULT2A), SULT2A1 (gene 6822); assay: CLD_SULT2A_24hr: CellzDirect (CLD) Gene Expression Assay for sulfotransferase (SULT2A) at 24 hours (AID 2283694);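 on AC50: potency for increased SULT2A1 mRNA level as induction over DMSO baseline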
# Summary of the method: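 mRNA is measured by qNPA: probe hybridisation, S1 nuclease digestion, chemiluminescence, in lysates from human primary hepatocytes harvested 24 h after daily dosing. Vehicle was 0.2% DMSO. Phase-contrast microscopy flagged cytotoxicity (yes/no).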
# [2] = read-out: ABC Transporter (ABCB1), ABCB1 (gene 5243); assay: CLD_ABCB1_48hr: CellzDirect (CLD) Gene Expression Assay for ABC Transporter (ABCB1) at 48 hours (AID 2283695);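 further: potency for induction meaning increase of mRNA over DMSO vehicle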
# Summary of the method: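 ABCB1 mRNA was measured by quantitative nuclease protection assay (chemiluminescence) 48 h after dosing. Human hepatocyte cultures from two separate donors received fresh dosing solutions daily for two days, with 0.2% DMSO as vehicle. Positive-direction fit against DMSO.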
# [3] = read-out: glucuronosyltransferase (UGT1A1), UGT1A1 (gene 54658); assay: CLD_UGT1A1_24hr: CellzDirect (CLD) Gene Expression Assay for glucuronosyltransferase (UGT1A1) at 24 hours (AID 2283696)
# Summary of the method: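 UGT1A1 transcript induction was measured by quantitative nuclease protection assay (chemiluminescence) in human hepatocyte cultures 24 h after daily fresh dosing, with 0.2% DMSO as vehicle and baseline.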
# [4] = read-out: Cytochrome P450 2C19 (Homo sapiens) (UniProt P33261); assay: CLD_CYP2C19_48hr: CellzDirect (CLD) Gene Expression Assay for xenobiotic metabolism (CYP2C19) at 48 hours (AID 2283700)
# Summary of the method: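 CYP2C19 mRNA induction read by chemiluminescent quantitative nuclease protection assay after 48 h, with fresh compound added daily for two days to cultured human liver hepatocytes. Activity fitted upward against 0.2% DMSO vehicle.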
# [5] = CLD_ACTIN_48hr: CellzDirect (CLD) Gene Expression Assay for Baseline Control (Actin) at 48 hours (AID 2283702)
# Summary of the method: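 Background-control actin mRNA read by qNPA chemiluminescence at 48 h. Human hepatocyte cultures from two donors received fresh multi-concentration chemical doses daily for two days; 0.2% DMSO served as vehicle baseline.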
# [6] = read-out: alkyl and aryl transferase (GSTA2), GSTA2 (gene 2939); assay: CLD_GSTA2_48hr: CellzDirect (CLD) Gene Expression Assay for alkyl and aryl transferase (GSTA2) at 48 hours (AID 2283708);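 further: active means mRNA induction above DMSO vehicle baseline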
# Summary of the method: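 GSTA2 mRNA quantified by qNPA chemiluminescence in human primary hepatocyte lysates after 48 h of daily fresh chemical dosing. Increases fitted against 0.2% DMSO vehicle baseline; cytotoxicity from morphology annotated yes/no.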
# [7] = read-out: sulfotransferase (SULT2A), SULT2A1 (gene 6822); assay: CLD_SULT2A_48hr: CellzDirect (CLD) Gene Expression Assay for sulfotransferase (SULT2A) at 48 hours (AID 2283710);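 further: hits raise SULT2A1 transcript above the 0.2% DMSO vehicle baseline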
# Summary of the method: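 SULT2A1 transcript measured by qNPA chemiluminescence in human primary hepatocyte cultures after 48 h, with fresh dosing solutions on two consecutive days; gain-of-signal fitting against 0.2% DMSO vehicle; cytotoxicity annotated from phase-contrast morphology.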
# [8] = test system: Thyroperoxidase (TPO), gene 445522; assay: CCTE_Simmons_GUA_TPO: CCTE's Guaiacol Assay for Thyroperoxidase (TPO) Inhibition, Simmons Lab (AID 2283750)
# Summary of the method: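 Porcine thyroid microsomes (25 ug) in 200mM potassium phosphate, preincubated 30 s at 37C with compound (8 concentrations, 5 nM–87.5 uM) and 35mM guaiacol; 1mM H2O2 starts reaction. Absorbance change at 450nm over first 80 s; loss of signal versus DMSO, three replicates.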
# [9] = ArunA_CellTiter_hNC: Viability Assessment in the ArunA Biomedical's Oris Neural Crest (hNC) Cell Migration Assay (AID 2283752)
# Summary of the method: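 hNC cells (H9 ESC-derived), 60,000/well, Matrigel, LIF + bFGF medium; 16 h 37C attachment; 72 h compound in test medium; CellTiter Aqueous One read-out; loss-of-signal vs DMSO baseline.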
# [10] = ArunA_Migration_hNP: ArunA Biomedical's Oris Neuroprogenitor (hNP) Cell Migration Assay (AID 2283754)
# Summary of the method: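 Readout is calcein-AM fluorescence (ex494/em517) of cells migrating into the detection zone, relative to DMSO. hNP1 cells (H9-derived) grown on Matrigel behind stoppers 16 h, then stoppers pulled and chemical applied 72 h; cytochalasin D as control.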
# [11] = ArunA_NOG_NeuriteLength: ArunA Biomedical's Neurite Outgrowth (NOG) Assay for Neurite Length (AID 2283757)
# Summary of the method: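 Total neurite length per neuron, from traced βIII-tubulin-labelled processes longer than 10 um on viable Hoechst-gated cells, was scored as decrease from DMSO. Cells were hESC (H9)-derived neurons given 48 h chemical exposure immediately after seeding.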
# [12] = ArunA_NOG_BranchPointsPerNeurite: ArunA Biomedical's Neurite Outgrowth (NOG) Assay for Branch Points Per Neurite (AID 2283759)
# Summary of the method: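 Automated image analysis traced neurites (processes >10 um) from valid cell bodies after Hoechst and βIII-tubulin staining. hNN cells from H9 embryonic stem cells, 48 h exposure. Fitted bidirectionally against DMSO.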
# [13] = Tanguay_ZF_120hpf_ActivityScore_legacy: (Legacy) Oregon State University Tanguay Lab 120 Hour Post-fertilization zebrafish Assay Score for Activity (AID 2283742);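 further: dechorionated Tropical 5D wild-type zebrafish embryos held singly per well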
# Summary of the method: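 Dechorionated 5D embryos, one per well, static exposure 6–120 hpf, 28C, sealed and dark; final DMSO 0.64% (vol/vol). Brightfield binary scoring of mortality plus 18 endpoints; gain-of-signal fit versus DMSO baseline.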
# [14] = read-out: Cytochrome P450 3A4 (Homo sapiens) (UniProt P08684); assay: CLD_CYP3A4_48hr: CellzDirect (CLD) Gene Expression Assay for xenobiotic metabolism (CYP3A4) at 48 hours (AID 2283698)
# Summary of the method: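 CYP3A4 induction read by qNPA chemiluminescence after 48 h, with fresh dosing solutions on consecutive days, in cultured human hepatocytes (two donors). Vehicle 0.2% DMSO as baseline; microscopy-based cytotoxicity annotated yes/no alongside data.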
# [15] = read-out: xenobiotic metabolism (CYP1A2), CYP1A2 (gene 1544); assay: CLD_CYP1A2_48hr: CellzDirect (CLD) Gene Expression Assay for xenobiotic metabolism (CYP1A2) at 48 hours (AID 2283703)
# Summary of the method: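 Cytotoxicity was flagged yes/no from morphology, while CYP1A2 transcript induction was detected by qNPA chemiluminescence after a 48-hour exposure. Human primary hepatocyte cultures from separate donors received fresh dosing solutions daily over two days, with 0.2% DMSO as vehicle and baseline.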
# [16] = read-out: xenobiotic metabolism (CYP1A1), CYP1A1 (gene 1543); assay: CLD_CYP1A1_48hr: CellzDirect (CLD) Gene Expression Assay for xenobiotic metabolism (CYP1A1) at 48 hours (AID 2283705)
# Summary of the method: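 CYP1A1 transcript measured by quantitative nuclease protection (chemiluminescent) 48 h after two daily treatments of human hepatocyte cultures, versus 0.2% DMSO. Morphology-based cytotoxicity flags accompany data; two donor preparations used.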
# [17] = STM_H9_OrnCyssISnorm_ratio: Stemina devTOX quickPredict H9 human embryonic stem cell (hESC)-based Assay for Ornithine (ORN):Cystine (CYSS) Ratio (AID 2283714)
# Summary of the method: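 UPLC-HRMS of spent media: ORN/CYSS ratio of internal-standard-normalized percentages, DMSO (0.1%) baseline. Pluripotent H9 hESCs, 72h exposure, daily re-dosing with fresh media; last 24h media collected.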
# [18] = ArunA_CellTiter_hNP: Viability Assessment in the ArunA Biomedical's Oris Neural Crest (hNC) Cell Migration Assay (AID 2283753)
# Summary of the method: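 Viability read with CellTiter 96 Aqueous One after 72 h chemical exposure of human hNP1 neuroprogenitors, which were plated on Matrigel in LIF/bFGF medium 16 h beforehand. Endpoint fitted in positive direction relative to DMSO.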
# [19] = read-out: glucuronosyltransferase (UGT1A1), UGT1A1 (gene 54658); assay: CLD_UGT1A1_48hr: CellzDirect (CLD) Gene Expression Assay for glucuronosyltransferase (UGT1A1) at 48 hours (AID 2283709);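 further: actives increase expression relative to DMSO so potency refers to induction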
# Summary of the method: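 Quantitative nuclease protection assay (chemiluminescent) for UGT1A1 mRNA at 48 h in human hepatocyte cultures from two donors, redosed daily with fresh solutions. Induction fitted relative to 0.2% DMSO; phase-contrast morphology annotated cytotoxicity.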
structure (smiles),measurement,setting,value
c1ccc2[nH]c(-c3cscn3)nc2c1,AC50,[1],inconclusive: 0.39 µM
same,AC50,[2],inconclusive: 5.14 µM
same,AC50,[3],inconclusive: 0.000395 µM
same,AC50,[4],inconclusive: 6.89 µM
same,AC50,[5],inconclusive: 3.97 µM
same,AC50,[6],inconclusive: 6.48 µM
same,AC50,[7],inconclusive: 20 µM
N[C@@H](Cc1cc(I)c(Oc2ccc(O)c(I)c2)c(I)c1)C(=O)O,AC50,[8],active: 13.1 µM
same,AC50,[9],active: 33 µM
same,AC50,[10],inconclusive: 0.12 µM
same,AC50,[11],inconclusive: 0.12 µM
same,AC50,[12],inconclusive: 50 µM
CCOc1ccc2[nH]cc(C(=O)NCc3ccccc3)c(=O)c2n1,AC50,[13],inconclusive: 134 µM
O=C(O)C1(C(=O)Nc2ccc(Cl)cc2Cl)CC1,outcome,[1],inactive
same,AC50,[3],active: 20 µM
same,outcome,[14],inactive
same,AC50,[4],inconclusive: 20 µM
same,outcome,[15],inactive
same,AC50,[6],inconclusive: 20 µM
same,AC50,[7],inconclusive: 20 µM
CN(C)C(=O)Nc1ccc(Cl)c(Cl)c1,AC50,[2],inconclusive: 13 µM
same,AC50,[4],inconclusive: 20 µM
same,AC50,[5],inconclusive: 20 µM
same,AC50,[6],inconclusive: 12 µM
same,AC50,[7],inconclusive: 0.0004 µM
CCCOC(=O)c1ccc(C(=O)OCCC)nc1,outcome,[1],inactive
same,AC50,[3],inconclusive: 1.9 µM
same,AC50,[14],inconclusive: 20 µM
same,AC50,[16],inconclusive: 20 µM
same,AC50,[6],inconclusive: 20 µM
CCOC(=O)O[C@H](C)OC(=O)c1ccc2c(c1)cc(C(=O)NC1CCN(C(C)C)CC1)n2Cc1cc(-c2ccc(Cl)s2)on1,AC50,[17],inconclusive: 0.5 µM
O=C(O)Cc1cc(I)c(Oc2cc(I)c(O)c(I)c2)c(I)c1,AC50,[18],inconclusive: 0.12 µM
same,AC50,[10],inconclusive: 50 µM
same,outcome,[11],inactive
same,AC50,[12],inconclusive: 50 µM
CCOC(=O)C(C)Oc1ccc(Oc2cnc3cc(Cl)ccc3n2)cc1 (stereo not drawn),outcome,[5],inactive
same,AC50,[16],inconclusive: 0.0004 µM
same,AC50,[6],inconclusive: 20 µM
CCCCOC(=O)[C@@H](C)Oc1ccc(Oc2ccc(C(F)(F)F)cn2)cc1,outcome,[1],inactive
same,AC50,[2],inconclusive: 8.61 µM
same,AC50,[5],inconclusive: 20 µM
same,AC50,[7],inconclusive: 0.0004 µM
COC(=O)c1ccc(O)cc1,outcome,[9],inactive
same,AC50,[18],inconclusive: 0.891 µM
same,AC50,[11],active: 18.1 µM
same,AC50,[12],active: 14.8 µM
COC(=O)c1ccccc1C(=O)O,AC50,[2],inconclusive: 20 µM
same,AC50,[14],inconclusive: 20 µM
same,AC50,[4],inconclusive: 20 µM
same,AC50,[6],inconclusive: 20 µM
CCCCCCCCOC(=O)c1cc(O)c(O)c(O)c1,AC50,[9],inconclusive: 0.895 µM
same,AC50,[11],inconclusive: 1.88 µM
CSC(=O)c1cccc2nnsc12,AC50,[2],inconclusive: 20 µM
same,AC50,[4],inconclusive: 20 µM
CCCCc1ccc2c(n1)[C@@H](c1ccc(OC)cc1C[C@H](C)C(=O)O)[C@H](C(=O)O)[C@H]2c1ccc2c(c1)OCO2,outcome,[18],inactive
same,AC50,[11],inconclusive: 50 µM
same,outcome,[12],inactive
Cc1ccc(-c2cc(C(F)(F)F)nn2-c2ccc(S(N)(=O)=O)cc2)cc1,AC50,[11],active: 12.9 µM
same,AC50,[12],inconclusive: 13.9 µM
CCCCOC(=O)C(C)Oc1ccc(Oc2ccc(C(F)(F)F)cn2)cc1 (stereo not drawn),AC50,[15],inconclusive: 0.189 µM
same,AC50,[16],inconclusive: 20 µM
same,AC50,[6],inconclusive: 3.97 µM
same,AC50,[19],inconclusive: 0.0557 µM

# An excerpt of these results, as tab-separated lines.
structure (smiles)	measurement	setting	value
CCCCc1ccc2c(n1)[C@@H](c1ccc(OC)cc1C[C@H](C)C(=O)O)[C@H](C(=O)O)[C@H]2c1ccc2c(c1)OCO2	outcome	[18]	inactive
same	AC50	[11]	inconclusive: 50 µM
same	outcome	[12]	inactive

# Source: PubChem BioAssay (EPA / NIEHS)
